The list shows a part of the results.
Experiments:
Assay in all cases: log2 fold change, soluble protein after heating vs DMSO (PISA); higher = thermal stabilisation; K562 cells, 10 uM, 30 min; active = over 0.2 and 3.5 SD of the protein, either way, in both replicates (recomputed)
[1] = compound: CS(=O)(=O)c1ccc(-c2cnc(N)c(C(=O)Nc3ccccc3)n2)cc1
How it was run: (§1)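 K562 cells at 2×10^6 cells/mL were treated for 30 min with 10 μM compound, and aliquots were heated for 3 min over 48°C-58°C before pooling. Extraction used PBS with 0.5% NP-40 at 4°C, and soluble protein was the supernatant after 21,000xg for 90 min, measured by TMTpro 16plex LC-MS/MS with channel sums equalised. Thermal stability values, relative to control samples and from duplicates, are log2 fold changes.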

The chains behind the UniProt entries cited, without tags or fusion partners. Where a name states a change or a piece, a line headed by the entry shows the natural chain unless it says otherwise.
UniProt Q5T8D3: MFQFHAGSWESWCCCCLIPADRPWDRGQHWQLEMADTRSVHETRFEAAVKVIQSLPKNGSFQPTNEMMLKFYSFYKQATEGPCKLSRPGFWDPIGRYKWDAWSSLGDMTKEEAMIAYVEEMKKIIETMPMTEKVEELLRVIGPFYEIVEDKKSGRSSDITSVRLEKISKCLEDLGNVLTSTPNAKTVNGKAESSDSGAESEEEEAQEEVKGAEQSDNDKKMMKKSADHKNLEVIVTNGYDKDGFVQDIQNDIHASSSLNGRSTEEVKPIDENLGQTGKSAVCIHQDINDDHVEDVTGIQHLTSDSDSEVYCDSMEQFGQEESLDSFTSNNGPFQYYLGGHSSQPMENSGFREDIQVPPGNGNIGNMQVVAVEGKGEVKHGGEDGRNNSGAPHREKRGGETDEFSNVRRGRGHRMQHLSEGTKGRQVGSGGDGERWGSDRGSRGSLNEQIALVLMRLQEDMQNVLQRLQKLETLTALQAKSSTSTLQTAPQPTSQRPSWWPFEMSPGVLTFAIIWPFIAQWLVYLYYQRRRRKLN
UniProt P24666: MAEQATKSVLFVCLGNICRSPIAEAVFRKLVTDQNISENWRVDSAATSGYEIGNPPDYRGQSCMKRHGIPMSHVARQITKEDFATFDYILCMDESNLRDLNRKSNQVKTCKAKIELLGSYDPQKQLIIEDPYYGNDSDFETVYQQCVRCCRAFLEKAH
UniProt P53396: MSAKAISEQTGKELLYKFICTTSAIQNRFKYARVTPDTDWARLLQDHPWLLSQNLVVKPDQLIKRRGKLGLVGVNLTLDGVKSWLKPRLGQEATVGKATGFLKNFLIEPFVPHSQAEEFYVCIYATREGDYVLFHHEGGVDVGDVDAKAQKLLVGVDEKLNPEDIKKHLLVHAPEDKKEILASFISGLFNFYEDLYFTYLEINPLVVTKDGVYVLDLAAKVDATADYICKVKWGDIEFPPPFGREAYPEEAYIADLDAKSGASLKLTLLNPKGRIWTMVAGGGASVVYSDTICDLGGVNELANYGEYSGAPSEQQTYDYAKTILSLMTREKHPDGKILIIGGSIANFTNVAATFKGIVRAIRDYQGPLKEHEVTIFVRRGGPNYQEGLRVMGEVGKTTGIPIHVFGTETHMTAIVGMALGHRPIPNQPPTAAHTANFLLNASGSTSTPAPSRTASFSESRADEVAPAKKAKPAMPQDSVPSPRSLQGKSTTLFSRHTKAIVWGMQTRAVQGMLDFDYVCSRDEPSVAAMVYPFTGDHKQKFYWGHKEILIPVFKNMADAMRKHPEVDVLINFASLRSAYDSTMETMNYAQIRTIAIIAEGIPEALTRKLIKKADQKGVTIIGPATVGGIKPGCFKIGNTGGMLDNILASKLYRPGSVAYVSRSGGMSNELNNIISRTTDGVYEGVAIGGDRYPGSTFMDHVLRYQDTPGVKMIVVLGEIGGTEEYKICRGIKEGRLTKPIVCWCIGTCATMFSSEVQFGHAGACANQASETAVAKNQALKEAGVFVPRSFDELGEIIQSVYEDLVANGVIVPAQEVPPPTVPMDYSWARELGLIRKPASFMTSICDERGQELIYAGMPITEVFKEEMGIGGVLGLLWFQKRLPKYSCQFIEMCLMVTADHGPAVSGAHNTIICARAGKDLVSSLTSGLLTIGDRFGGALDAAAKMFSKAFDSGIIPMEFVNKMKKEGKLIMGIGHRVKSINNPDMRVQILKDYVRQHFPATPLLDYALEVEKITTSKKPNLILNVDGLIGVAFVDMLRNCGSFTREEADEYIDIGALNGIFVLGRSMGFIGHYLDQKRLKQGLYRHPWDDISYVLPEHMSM
UniProt Q9NRN7: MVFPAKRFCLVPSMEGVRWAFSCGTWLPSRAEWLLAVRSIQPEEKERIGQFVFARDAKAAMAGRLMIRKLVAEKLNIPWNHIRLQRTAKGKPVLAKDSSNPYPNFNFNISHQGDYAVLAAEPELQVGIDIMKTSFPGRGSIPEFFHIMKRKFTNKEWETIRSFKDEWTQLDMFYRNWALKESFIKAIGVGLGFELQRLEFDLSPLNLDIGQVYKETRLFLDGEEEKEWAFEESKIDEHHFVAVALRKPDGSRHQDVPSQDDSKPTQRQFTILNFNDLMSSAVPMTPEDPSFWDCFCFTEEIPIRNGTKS
UniProt Q15067: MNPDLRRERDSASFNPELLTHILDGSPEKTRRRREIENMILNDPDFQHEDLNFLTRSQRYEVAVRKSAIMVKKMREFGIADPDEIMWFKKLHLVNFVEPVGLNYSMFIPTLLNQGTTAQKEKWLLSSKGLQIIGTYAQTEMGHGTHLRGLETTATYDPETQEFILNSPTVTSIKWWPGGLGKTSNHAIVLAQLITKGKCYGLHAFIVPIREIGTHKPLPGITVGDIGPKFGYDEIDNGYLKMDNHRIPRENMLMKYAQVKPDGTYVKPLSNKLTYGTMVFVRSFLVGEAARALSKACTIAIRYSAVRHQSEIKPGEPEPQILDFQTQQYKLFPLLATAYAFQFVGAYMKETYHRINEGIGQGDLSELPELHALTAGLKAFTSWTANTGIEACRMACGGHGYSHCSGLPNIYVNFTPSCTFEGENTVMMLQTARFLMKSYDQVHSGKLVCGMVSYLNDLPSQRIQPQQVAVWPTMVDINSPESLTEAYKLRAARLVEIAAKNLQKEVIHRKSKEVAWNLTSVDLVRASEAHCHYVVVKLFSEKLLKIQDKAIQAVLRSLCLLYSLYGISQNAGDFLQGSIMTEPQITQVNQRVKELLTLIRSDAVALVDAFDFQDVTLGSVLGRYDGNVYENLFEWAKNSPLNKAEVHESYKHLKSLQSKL
UniProt Q9NPJ3: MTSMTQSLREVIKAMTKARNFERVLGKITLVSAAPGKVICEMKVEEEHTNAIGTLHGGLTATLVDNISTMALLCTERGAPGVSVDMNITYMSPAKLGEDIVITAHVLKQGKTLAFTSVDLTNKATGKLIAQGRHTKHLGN
UniProt P16219: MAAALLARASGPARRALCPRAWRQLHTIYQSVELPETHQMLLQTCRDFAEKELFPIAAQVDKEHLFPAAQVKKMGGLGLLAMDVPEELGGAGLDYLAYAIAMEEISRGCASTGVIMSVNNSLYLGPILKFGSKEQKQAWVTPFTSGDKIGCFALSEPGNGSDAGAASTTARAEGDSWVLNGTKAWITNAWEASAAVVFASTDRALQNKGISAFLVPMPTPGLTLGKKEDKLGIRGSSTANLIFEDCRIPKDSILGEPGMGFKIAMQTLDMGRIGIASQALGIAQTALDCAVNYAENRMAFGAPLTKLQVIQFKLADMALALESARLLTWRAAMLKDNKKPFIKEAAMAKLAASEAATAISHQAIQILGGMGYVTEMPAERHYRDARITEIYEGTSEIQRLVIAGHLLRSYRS
UniProt Q9NRG9: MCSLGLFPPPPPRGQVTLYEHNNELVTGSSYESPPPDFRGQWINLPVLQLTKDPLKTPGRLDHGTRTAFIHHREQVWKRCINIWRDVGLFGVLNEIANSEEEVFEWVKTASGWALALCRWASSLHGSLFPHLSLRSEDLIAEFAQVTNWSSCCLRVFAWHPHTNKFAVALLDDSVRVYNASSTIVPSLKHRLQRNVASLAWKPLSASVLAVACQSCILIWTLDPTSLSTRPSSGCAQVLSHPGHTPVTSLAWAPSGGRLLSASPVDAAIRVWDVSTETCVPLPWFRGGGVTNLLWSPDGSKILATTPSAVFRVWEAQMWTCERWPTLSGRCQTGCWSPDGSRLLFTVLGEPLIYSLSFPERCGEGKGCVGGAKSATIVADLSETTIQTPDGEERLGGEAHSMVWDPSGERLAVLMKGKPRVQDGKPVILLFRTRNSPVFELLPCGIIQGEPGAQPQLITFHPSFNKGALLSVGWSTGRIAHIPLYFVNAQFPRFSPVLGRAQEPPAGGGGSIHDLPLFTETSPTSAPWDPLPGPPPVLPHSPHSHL
UniProt Q9H7C9: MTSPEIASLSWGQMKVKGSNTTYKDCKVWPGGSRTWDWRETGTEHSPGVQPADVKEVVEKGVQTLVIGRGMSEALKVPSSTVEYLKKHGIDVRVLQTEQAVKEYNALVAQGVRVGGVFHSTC
UniProt Q13444: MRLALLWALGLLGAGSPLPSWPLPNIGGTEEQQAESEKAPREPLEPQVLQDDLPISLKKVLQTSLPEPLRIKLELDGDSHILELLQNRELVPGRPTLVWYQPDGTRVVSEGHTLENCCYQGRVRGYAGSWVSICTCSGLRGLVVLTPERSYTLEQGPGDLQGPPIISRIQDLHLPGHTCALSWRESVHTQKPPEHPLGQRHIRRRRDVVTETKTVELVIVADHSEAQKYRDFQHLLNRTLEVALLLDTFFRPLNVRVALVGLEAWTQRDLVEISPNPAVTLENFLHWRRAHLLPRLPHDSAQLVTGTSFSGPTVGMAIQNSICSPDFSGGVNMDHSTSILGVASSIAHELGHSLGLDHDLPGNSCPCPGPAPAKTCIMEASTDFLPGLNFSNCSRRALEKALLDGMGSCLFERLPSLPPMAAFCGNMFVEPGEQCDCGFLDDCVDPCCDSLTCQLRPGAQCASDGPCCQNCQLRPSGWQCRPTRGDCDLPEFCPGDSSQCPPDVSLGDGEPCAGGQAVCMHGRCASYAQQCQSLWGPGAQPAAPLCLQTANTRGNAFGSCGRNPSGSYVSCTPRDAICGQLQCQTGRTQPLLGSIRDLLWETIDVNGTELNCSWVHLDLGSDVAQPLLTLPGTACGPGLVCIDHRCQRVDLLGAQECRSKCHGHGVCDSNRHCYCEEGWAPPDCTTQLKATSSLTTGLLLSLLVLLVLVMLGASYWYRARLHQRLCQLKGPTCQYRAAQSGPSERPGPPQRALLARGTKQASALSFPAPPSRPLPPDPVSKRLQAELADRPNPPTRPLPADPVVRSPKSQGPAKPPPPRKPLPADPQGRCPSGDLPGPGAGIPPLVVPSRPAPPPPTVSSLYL
UniProt O14672: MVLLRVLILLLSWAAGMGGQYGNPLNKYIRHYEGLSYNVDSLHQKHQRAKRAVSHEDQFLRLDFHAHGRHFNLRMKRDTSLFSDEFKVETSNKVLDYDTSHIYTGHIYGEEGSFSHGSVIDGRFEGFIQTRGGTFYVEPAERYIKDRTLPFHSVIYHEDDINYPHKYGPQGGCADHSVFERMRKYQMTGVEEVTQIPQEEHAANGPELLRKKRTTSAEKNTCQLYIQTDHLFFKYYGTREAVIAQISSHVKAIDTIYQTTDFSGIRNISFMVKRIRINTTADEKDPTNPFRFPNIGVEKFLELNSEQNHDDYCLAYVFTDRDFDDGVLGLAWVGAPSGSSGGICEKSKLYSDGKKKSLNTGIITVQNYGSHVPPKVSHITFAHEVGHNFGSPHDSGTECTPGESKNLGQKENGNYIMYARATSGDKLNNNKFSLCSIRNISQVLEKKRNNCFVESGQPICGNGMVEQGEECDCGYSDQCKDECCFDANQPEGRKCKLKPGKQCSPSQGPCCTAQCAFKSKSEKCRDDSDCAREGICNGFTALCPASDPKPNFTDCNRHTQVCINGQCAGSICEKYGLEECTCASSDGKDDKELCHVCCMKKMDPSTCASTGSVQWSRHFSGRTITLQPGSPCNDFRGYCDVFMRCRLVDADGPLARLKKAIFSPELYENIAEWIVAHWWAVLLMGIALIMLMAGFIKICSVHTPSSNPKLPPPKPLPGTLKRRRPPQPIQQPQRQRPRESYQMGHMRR
UniProt Q86TW2: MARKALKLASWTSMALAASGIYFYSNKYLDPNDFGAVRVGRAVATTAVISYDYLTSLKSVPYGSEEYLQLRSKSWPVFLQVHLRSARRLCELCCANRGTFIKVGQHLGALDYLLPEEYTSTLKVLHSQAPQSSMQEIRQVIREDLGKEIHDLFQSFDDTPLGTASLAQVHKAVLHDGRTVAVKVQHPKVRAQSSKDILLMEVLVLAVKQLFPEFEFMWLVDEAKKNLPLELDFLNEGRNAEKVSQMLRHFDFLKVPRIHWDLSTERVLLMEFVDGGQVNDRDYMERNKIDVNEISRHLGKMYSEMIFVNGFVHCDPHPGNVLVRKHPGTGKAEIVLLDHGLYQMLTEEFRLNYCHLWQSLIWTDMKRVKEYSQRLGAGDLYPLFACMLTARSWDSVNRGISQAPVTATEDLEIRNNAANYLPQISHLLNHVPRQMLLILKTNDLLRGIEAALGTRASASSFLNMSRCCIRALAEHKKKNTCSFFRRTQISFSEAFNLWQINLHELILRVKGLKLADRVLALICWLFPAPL
UniProt Q9Y305: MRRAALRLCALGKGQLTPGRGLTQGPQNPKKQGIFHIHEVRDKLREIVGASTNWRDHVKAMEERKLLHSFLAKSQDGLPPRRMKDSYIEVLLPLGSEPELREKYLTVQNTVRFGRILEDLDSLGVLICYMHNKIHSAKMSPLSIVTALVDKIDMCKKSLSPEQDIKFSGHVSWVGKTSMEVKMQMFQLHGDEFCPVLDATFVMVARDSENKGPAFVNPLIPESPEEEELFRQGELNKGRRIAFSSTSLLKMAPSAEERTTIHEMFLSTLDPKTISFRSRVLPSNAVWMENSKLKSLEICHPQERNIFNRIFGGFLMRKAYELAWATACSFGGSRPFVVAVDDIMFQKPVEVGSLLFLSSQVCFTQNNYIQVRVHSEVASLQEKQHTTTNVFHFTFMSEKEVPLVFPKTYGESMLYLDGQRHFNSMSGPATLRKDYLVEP

[2] = compound: C[C@@H](Oc1cc(-c2cnn(C3CCNCC3)c2)cnc1N)c1c(Cl)ccc(F)c1Cl [crizotinib]
How it was run: as §1

[3] = compound: C[C@@H]1COCCN1C2=NC(=NC(=C2)C3(CC3)S(=O)(=O)C)C4=C5C=CNC5=CC=C4
How it was run: as §1

[4] = compound: C[C@H](C1=CC=C(C=C1)C(=O)NC2=C3C=CNC3=NC=C2)N
How it was run: as §1

[5] = compound: C[C@H](Nc1ncnc2nc[nH]c12)c1cc2cccc(Cl)c2c(=O)n1-c1ccccc1 [duvelisib]
How it was run: as §1

[6] = compound: Cc1cc(Nc2cc(CN3CCOCC3)c3nc(C)c(Cc4ccc(Cl)cc4F)n3n2)n[nH]1 [gandotinib]
How it was run: as §1

[7] = compound: Cc1cc(Nc2cc(N3CCN(C)CC3)nc(Sc3ccc(NC(=O)C4CC4)cc3)n2)n[nH]1 [tozasertib]
How it was run: as §1

[8] = compound: Cc1cc(SCc2sc(-c3ccc(C(F)(F)F)cc3)nc2C)ccc1OCC(=O)O
How it was run: as §1

[9] = compound: Cc1ccc(-n2nc(C(C)(C)C)cc2NC(=O)Nc2ccc(OCCN3CCOCC3)c3ccccc23)cc1 [doramapimod]
How it was run: as §1

[10] = compound: Cc1ccc(C(=O)N(CCCN)[C@@H](c2nc3cc(Cl)ccc3c(=O)n2Cc2ccccc2)C(C)C)cc1 [ispinesib]
How it was run: as §1

Target	log2 fold change [1]	log2 fold change [2]	log2 fold change [3]	log2 fold change [4]	log2 fold change [5]	log2 fold change [6]	log2 fold change [7]	log2 fold change [8]	log2 fold change [9]	log2 fold change [10]
ABCC1 (UniProt P33527)	inactive: 0.026	inactive: 0.082	inactive: 0.022	inactive: -0.104	inactive: 0.039	inactive: -0.076	inactive: -0.063	inactive: -0.012	inactive: -0.025	inactive: 0.125
ADAR isoform 4 (UniProt P55265)	inactive: -0.097	inactive: 0.113	inactive: -0.131	inactive: 0.274	inactive: -0.017	inactive: 0.03	inactive: 0.196	inactive: -0.064	inactive: 0.028	inactive: -0.012
ABRAXAS2 (UniProt Q15018)	inactive: 0.012	inactive: 0.006	inactive: 0.036	inactive: -0.033	inactive: 0	inactive: 0.033	inactive: -0.024	inactive: -0.058	inactive: -0.061	inactive: 0.004
ACBD5 (UniProt Q5T8D3)	inactive: 0.033	inactive: 0.102	inactive: 0.059	inactive: 0.203	inactive: -0.048	inactive: -0.295	inactive: -0.096	inactive: 0.095	inactive: 0.053	inactive: -0.146
ACACA isoform 4 (UniProt Q13085)	inactive: 0.049	inactive: -0.139	inactive: -0.094	inactive: 0.356	inactive: -0.113	inactive: -0.002	inactive: 0.059	inactive: 0.18	inactive: 0.167	inactive: -0.205
ABCB8 (UniProt Q9NUT2)	inactive: 0.011	inactive: -0.191	inactive: 0.046	inactive: -0.014	inactive: 0.042	inactive: -0.072	inactive: -0.05	inactive: 0.018	inactive: -0.006	inactive: -0.051
ACTA1 (UniProt P68133)	inactive: -0.022	inactive: 0.065	inactive: 0.001	inactive: -0.016	inactive: 0.002	inactive: -0.013	inactive: -0.003	inactive: -0.064	inactive: -0.005	inactive: 0.048
ADAL (UniProt Q6DHV7)	inactive: 0.005	inactive: 0.12	inactive: 0.086	inactive: -0.036	inactive: 0.007	inactive: 0.05	inactive: -0.047	inactive: -0.019	inactive: -0.043	inactive: 0.09
ACP1 (UniProt P24666)	inactive: 0.077	inactive: -0.063	inactive: -0.033	inactive: 0.165		inactive: -0.083		inactive: 0.324	inactive: 0.141	
ACLY (UniProt P53396)	inactive: 0.005	inactive: 0.021	inactive: 0.052	inactive: -0.063	inactive: 0.035	inactive: 0.009	inactive: 0.017	inactive: -0.001	inactive: 0	inactive: 0.033
AASDHPPT (UniProt Q9NRN7)	inactive: 0.006	inactive: 0.02	inactive: 0.045	inactive: -0.038	inactive: 0.057	inactive: -0.05	inactive: 0.046	inactive: 0.019	inactive: -0.031	inactive: 0.113
ACADSB (UniProt P45954)	inactive: 0.115	inactive: -0.009	inactive: 0.118	inactive: -0.099	inactive: 0.084	inactive: 0.048	inactive: -0.128	inactive: 0.068	inactive: 0.006	inactive: 0.105
ABCA3 (UniProt Q99758)	inactive: 0.111	active: -0.361	inactive: 0.174	inactive: 0.073		inactive: 0.036		inactive: 0.014	inactive: 0.031	active: -0.502
ACP1 isoform 2 (UniProt P24666)	inactive: 0.008	inactive: -0.079	inactive: 0.016	inactive: 0.15		inactive: -0.137		inactive: 0.12	inactive: 0.033	inactive: -0.041
ACOX1 isoform 2 (UniProt Q15067)	inactive: 0.004	inactive: -0.016	inactive: -0.001	inactive: -0.121	inactive: 0.014	inactive: 0.044	inactive: 0.023	inactive: 0.011	inactive: 0	inactive: 0.092
ACAT2 (UniProt Q9BWD1)	inactive: -0.018	inactive: -0.017	inactive: 0.011	inactive: -0.014	inactive: 0.043	inactive: -0.032	inactive: -0.085	inactive: -0.042	inactive: -0.016	inactive: -0.016

Target	log2 fold change [1]	log2 fold change [2]	log2 fold change [3]	log2 fold change [4]	log2 fold change [5]	log2 fold change [6]	log2 fold change [7]	log2 fold change [8]	log2 fold change [9]	log2 fold change [10]
ACOT13 (UniProt Q9NPJ3)	inactive: -0.014	inactive: 0.102	inactive: -0.081	inactive: -0.081	inactive: -0.011	inactive: 0.074	inactive: 0.009	inactive: -0.011	inactive: -0.071	inactive: 0.084
ACADS (UniProt P16219)	inactive: 0.028	inactive: 0.038	inactive: 0.105	inactive: 0.031	inactive: 0.057	inactive: 0.042	inactive: -0.022	inactive: 0.008	inactive: 0.005	inactive: 0.066
ADAM17 (UniProt P78536)	inactive: 0.035	inactive: 0.1	inactive: 0.028	inactive: 0.058	inactive: 0.034	inactive: -0.06	inactive: -0.014	inactive: -0.014	inactive: 0.04	inactive: -0.003
ADA (UniProt P00813)	inactive: 0.013	inactive: 0.006	inactive: 0.066	inactive: -0.036	inactive: 0.075	inactive: -0.052	inactive: -0.056	inactive: -0.094	inactive: 0.014	inactive: -0.005
AAAS (UniProt Q9NRG9)	inactive: -0.018	inactive: 0.018	inactive: -0.013	inactive: -0.089	inactive: 0.012	inactive: -0.028	inactive: 0.008	inactive: 0.004	inactive: -0.021	inactive: 0.056
AAMDC (UniProt Q9H7C9)	inactive: -0.06	inactive: 0.085	inactive: 0.067	inactive: -0.077	inactive: 0.118	inactive: 0.068	inactive: 0.048	inactive: -0.022	inactive: 0.053	inactive: 0.077
ABI1 (UniProt Q8IZP0)	inactive: 0.009	inactive: -0.023	inactive: 0.031	inactive: -0.139	inactive: 0.073	inactive: -0.014	inactive: -0.004	inactive: 0.102	inactive: -0.034	inactive: -0.039
ADAM15 (UniProt Q13444)	inactive: 0	inactive: 0.097	inactive: 0.015	inactive: -0.047		inactive: -0.047		inactive: -0.047	inactive: 0.033	inactive: -0.119
ACTG1 (UniProt K7EM38)	inactive: 0.019	inactive: 0.136	inactive: 0.004	inactive: 0.014	inactive: 0.133	inactive: -0.682	inactive: -0.062	inactive: 0.063	inactive: 0.116	inactive: 0.127
ADAM10 (UniProt O14672)	inactive: 0.052	inactive: 0.081	inactive: -0.031	inactive: -0.052	inactive: 0.017	inactive: -0.009	inactive: 0.006	inactive: -0.013	inactive: 0.018	inactive: -0.001
ADCK1 (UniProt Q86TW2)	inactive: -0.026	inactive: -0.118	inactive: -0.2	inactive: -0.041	inactive: -0.099		inactive: -0.22	inactive: -0.061	inactive: 0.282	inactive: -0.047
ACOT9 isoform 4 (UniProt Q9Y305)	inactive: -0.008	inactive: 0.005	inactive: -0.101	inactive: 0.121	inactive: -0.02	inactive: 0.104	inactive: -0.096	inactive: 0.064	inactive: 0.098	inactive: 0.071
ABI2 (UniProt Q9NYB9)	inactive: 0.029	inactive: -0.055	inactive: 0.002	inactive: -0.081	inactive: 0.029	inactive: -0.094	inactive: -0.052	inactive: 0.037	inactive: -0.045	inactive: -0.017
ACAT1 (UniProt P24752)	inactive: -0.007	inactive: 0.09	inactive: -0.018	inactive: -0.035	inactive: 0.011	inactive: -0.046	inactive: -0.032	inactive: -0.035	inactive: -0.041	inactive: -0.004
ACTN4 (UniProt K7EJH8)	inactive: 0.016	inactive: 0.003	inactive: -0.017	inactive: -0.041	inactive: 0.093	inactive: -0.018	inactive: -0.06	inactive: -0.055	inactive: 0.008	inactive: 0.074

Whole records from above. Values in the order: log2 fold change [1]	log2 fold change [2]	log2 fold change [3]	log2 fold change [4]	log2 fold change [5]	log2 fold change [6]	log2 fold change [7]	log2 fold change [8]	log2 fold change [9]	log2 fold change [10]
ADAM17 (UniProt P78536) is listed as inactive: 0.035	inactive: 0.1	inactive: 0.028	inactive: 0.058	inactive: 0.034	inactive: -0.06	inactive: -0.014	inactive: -0.014	inactive: 0.04	inactive: -0.003
AAMDC (UniProt Q9H7C9) is listed as inactive: -0.06	inactive: 0.085	inactive: 0.067	inactive: -0.077	inactive: 0.118	inactive: 0.068	inactive: 0.048	inactive: -0.022	inactive: 0.053	inactive: 0.077

Reference: the supplement of paper PMC10849652
